Measurements from PubChem BioAssay AID493014 (National Center for Advancing Translational Sciences (NCATS), 2011).
Some of the results follow. Further columns of the screen follow, without active or inactive calls. Most of these compounds were active or inconclusive in the main read-out, so they are no random draw. The note in brackets gives the kind of curve behind each potency; many fits are weak.

Experiment: qHTS Assay to Find Inhibitors of Chronic Active B-Cell Receptor Signaling
Conditions: ABC-DLBCL IkBa-CBG/CBR reporter, luminescence ratio (green luciferase fused to IkBa over red control in TMD8 lymphoma cells), 4 h
Procedure, shortened: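 Doxycycline induced both beetle luciferases in TMD8 lymphoma cells; IKK-driven degradation limits the IkappaBalpha-fused green signal, while red luminescence normalises for cell number and nonspecific effects. Compounds tested up to 46 uM, 4 hrs.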

[1] = measured here: CBR red luminescence, cell number
[2] = measured here: IkBa-CBG green luminescence

SMILES | AC50 [1] | AC50 [2]
COCCOc1ccc(C(F)(F)F)cc1NC(=O)c1ccc(C)cc1 | 18.4 µM [rising, partial curve, poor fit] | 
CCOc1ccc(-n2c(C)nc(O)c2N=Nc2ccccc2)cc1 | 2.51 µM [rising, partial curve, poor fit] | 
CCCc1ccc2oc(C(=O)N(Cc3ccncc3)CC3CCCO3)c(C)c2c1 (stereo unspecified) | 11.2 µM [falling, single point] | 
CCCC(CCC)=NNC(=O)c1ccccc1F | 7.94 µM [falling, partial curve] | 
O=C(Nc1ccncc1)c1ccc(Cl)c(S(=O)(=O)N2CCc3ccccc32)c1 | 6.51 µM [falling, partial curve] | 
Cc1cccn2c(=O)c(/C=C(\C#N)C(=O)NCc3ccco3)c(N3CCOCC3)nc12 | 0.1 µM [falling, full curve, poor fit] | 
COc1ccc(C2=NOC3(CC(=O)N(c4ccc(F)cc4)C3=O)C2)cc1 (stereo unspecified) | 35.5 µM [falling, single point] | 
C#CCOCCOCCOCCNc1nc(N2CCN(C(=O)[C@H]([C@@H](C)CC)n3cc([C@@H](N)Cc4ccc(O)cc4)nn3)CC2)nc(N2CCN(C(=O)[C@H](CCCCN)n3cc([C@@H](N)CO)nn3)CC2)n1 | 0.562 µM [rising, full curve, poor fit] | 
COc1ccc(-c2csc(NC(=O)Cc3cc(OC)c(OC)c(OC)c3)n2)cc1OC | 35.5 µM [falling, single point] | 
CN(C)/C=C/C(=O)c1cnc(-c2ccccc2)s1 | 35.5 µM [falling, single point] | 
CC(C)c1[nH]nc2c1C(C1C=CCCC1)C(C#N)=C(N)O2 (stereo unspecified) | 0.282 µM [falling, full curve, poor fit] | 
CCCn1c(N)c(C(=O)COC(=O)c2cccc(S(=O)(=O)N3CCOCC3)c2)c(=O)[nH]c1=O | 20.6 µM [rising, single point] | 
O=C(CNC(=O)c1ccco1)N=Nc1c(O)[nH]c2ccc([N+](=O)[O-])cc12 | 0.562 µM [falling, full curve, poor fit] | 
CN(/N=C/c1cc(Cl)ccc1O)C1=NS(=O)(=O)c2ccccc21 | 11.2 µM [rising, partial curve, poor fit] | 
COC(=O)[C@H]1CN(C(=O)c2ccccc2)C(=O)N1 | 0.708 µM [rising, full curve, poor fit] | 
CCCCNc1ncnc2c1cnn2Cc1ccc(Cl)cc1 | 3.16 µM [rising, full curve, poor fit] | 
COc1ccc(NC(=O)/C=C/c2ccc(F)cc2)cn1 | 29.1 µM [falling, single point] | 
Cn1c(-c2csc(-c3ccccc3)n2)n[nH]c1=S |  | 17.8 µM [falling, single point]
O=S(=O)(c1ccc(NC(=S)N/N=C/c2c3ccccc3cc3ccccc23)cc1)N1CCOCC1 | 10 µM [rising, partial curve, poor fit] | 
CN(C)C(=O)c1ccc(NC(=O)c2ccc(-c3ccc(Cl)cc3)o2)cc1 | 29.1 µM [falling, single point] | 

Shown with each value named: part of the list above.
CCCc1ccc2oc(C(=O)N(Cc3ccncc3)CC3CCCO3)c(C)c2c1 (stereo unspecified)
  AC50 [1]: 11.2 µM [falling, single point]
COC(=O)[C@H]1CN(C(=O)c2ccccc2)C(=O)N1
  AC50 [1]: 0.708 µM [rising, full curve, poor fit]

Later entries.

SMILES | AC50 [1] | AC50 [2]
O=C(OCn1ncc(Br)c(Br)c1=O)c1c(F)cccc1F | 3.66 µM [falling, full curve] | 4.61 µM [rising, full curve, poor fit]
Cc1ccsc1C(=O)N1CCCC(C(=O)c2cc(F)ccc2F)C1 (stereo unspecified) | 12.6 µM [rising, partial curve, poor fit] | 
FC(F)(F)c1ccc(N2CCN(c3cc(-c4ccccc4)nc4ncnn34)CC2)nc1 | 31.6 µM [falling, partial curve, poor fit] | 
CCOc1cc(/C=C(/C#N)c2nc3ccccc3[nH]2)ccc1Oc1ccc([N+](=O)[O-])cn1 | 0.651 µM [falling, full curve, poor fit] | 
O=C1C(=C2SCCCS2)CC/C1=C\c1ccc(F)cc1 | 2.51 µM [falling, partial curve] | 
O=C(/C=C/c1ccc(Cl)cc1)NCc1cccs1 | 23.1 µM [falling, single point] | 
CC1CCN(C(=O)CNC(=O)c2cccc(OC(F)F)c2)CC1 | 3.98 µM [falling, full curve, poor fit] | 
Cc1ccc(/C=N/NC(=S)N2CCOCC2)cc1 | 1.84 µM [rising, full curve] | 
COc1cccc(Nc2nc(N)nc(CCl)n2)c1 | 11.2 µM [falling, partial curve] | 
Cc1ccc(/C=C/c2nnc(-c3ccccc3)o2)cc1 | 1.58 µM [falling, full curve] | 
Cc1ccccc1-n1c(SCC(=O)N2CCC(C(=O)O)CC2)nnc1-c1ccncc1 | 35.5 µM [rising, single point] | 
CC(=O)Nc1ccc(Nc2cc(C(C)C)nc3c(-c4ccccc4)c(C)nn23)cc1 | 35.5 µM [falling, single point] | 
O=C(O)c1ccc(Nc2ncc([N+](=O)[O-])cc2[N+](=O)[O-])cc1 | 3.16 µM [falling, partial curve, poor fit] | 
C=CCn1c(SCC(=O)Nc2ccc(C)cc2C)nnc1-c1cccnc1 | 29.1 µM [rising, single point] | 
COc1ccccc1N1CCN(C(c2cccs2)C(C)NC(=O)c2cccnc2)CC1 (stereo unspecified) | 2.51 µM [falling, partial curve, poor fit] | 
CC1=NN(c2ccccc2)C(=O)/C1=C\C=C\c1ccccc1 | 1.78 µM [falling, full curve] | 
N=c1n(Cc2ccc(Cl)cc2)c2ccccc2n1CC(O)c1ccco1 (stereo unspecified) | 11.2 µM [falling, partial curve, poor fit] | 
Cc1cccc(NC(=O)C2NC(=O)CC2c2ccccc2)c1C (stereo unspecified) | 23.1 µM [falling, partial curve, poor fit] | 
CCOC(=O)c1cn[nH]c1NC(=S)Nc1ccccc1 | 4.47 µM [falling, partial curve, poor fit] | 
O=C(NCCCOc1cccc(CN2CCCCC2)c1)c1ccc(Cl)c(Cl)c1 | 32.6 µM [falling, single point] | 
